Laboratory results published in article PMC10725606.
Results are given in words; binding and its absence hold for the method and conditions named. In cells and extracts the contact can be indirect. Some entries that bind do so weakly or less than the wild type.

By UniProt entry, the sequences of proteins in these tests, tags left out. Where a name states a change or a piece, a line headed by the entry shows the natural chain unless it says otherwise.
UniProt Q96RT1: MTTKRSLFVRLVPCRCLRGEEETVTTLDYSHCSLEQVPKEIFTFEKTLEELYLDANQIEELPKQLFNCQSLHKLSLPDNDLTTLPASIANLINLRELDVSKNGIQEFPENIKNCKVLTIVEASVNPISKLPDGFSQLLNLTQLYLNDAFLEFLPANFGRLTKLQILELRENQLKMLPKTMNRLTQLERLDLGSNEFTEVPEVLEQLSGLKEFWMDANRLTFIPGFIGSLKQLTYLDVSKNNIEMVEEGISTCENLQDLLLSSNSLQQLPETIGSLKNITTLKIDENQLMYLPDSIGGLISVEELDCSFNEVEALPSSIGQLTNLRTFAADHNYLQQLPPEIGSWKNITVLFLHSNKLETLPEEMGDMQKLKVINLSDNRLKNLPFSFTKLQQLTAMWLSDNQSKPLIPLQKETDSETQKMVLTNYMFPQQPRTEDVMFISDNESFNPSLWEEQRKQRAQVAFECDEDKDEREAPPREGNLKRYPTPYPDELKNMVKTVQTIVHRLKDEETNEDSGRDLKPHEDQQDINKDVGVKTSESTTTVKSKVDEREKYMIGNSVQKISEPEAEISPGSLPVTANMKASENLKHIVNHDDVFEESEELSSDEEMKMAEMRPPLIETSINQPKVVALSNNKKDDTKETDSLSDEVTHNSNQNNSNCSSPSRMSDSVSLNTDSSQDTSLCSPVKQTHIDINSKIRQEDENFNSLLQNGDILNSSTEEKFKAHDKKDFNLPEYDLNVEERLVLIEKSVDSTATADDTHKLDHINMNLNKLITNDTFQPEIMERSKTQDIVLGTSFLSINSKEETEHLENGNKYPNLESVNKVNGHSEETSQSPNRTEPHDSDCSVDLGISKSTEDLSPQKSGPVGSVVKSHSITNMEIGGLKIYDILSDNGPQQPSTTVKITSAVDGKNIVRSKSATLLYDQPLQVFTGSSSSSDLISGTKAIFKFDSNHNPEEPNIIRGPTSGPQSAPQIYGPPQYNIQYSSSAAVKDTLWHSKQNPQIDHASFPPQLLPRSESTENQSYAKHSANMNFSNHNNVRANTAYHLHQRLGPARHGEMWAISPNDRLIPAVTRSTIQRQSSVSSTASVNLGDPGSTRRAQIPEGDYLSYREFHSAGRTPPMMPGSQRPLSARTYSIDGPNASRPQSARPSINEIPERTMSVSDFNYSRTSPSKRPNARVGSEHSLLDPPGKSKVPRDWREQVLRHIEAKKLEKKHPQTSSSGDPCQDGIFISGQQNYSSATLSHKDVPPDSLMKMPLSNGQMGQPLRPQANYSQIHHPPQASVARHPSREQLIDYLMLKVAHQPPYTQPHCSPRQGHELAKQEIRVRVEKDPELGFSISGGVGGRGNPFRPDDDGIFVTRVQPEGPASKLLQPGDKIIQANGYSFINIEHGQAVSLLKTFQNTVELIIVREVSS

Legend:
[1] = target: TFEB (of the experiment of Fig. 6C) (UniProt P19484); assay: co-IP; 293T cells transfected with Flag-TFEB and/or HA-Erbin; TFEB with 14-3-3 or PPP3CB of the lysate, with or without co-expressed HA-Erbin; immunoblot with the indicated antibodies
[2] = target: Myc-tagged TFEB (UniProt P19484); assay: co-IP; 293T cells co-transfected with Erbin and TFEB plasmids (full length or truncated), 48 h; co-IP and immunoblot with the indicated antibodies; lysis in 50 mM Tris-HCl, 150 mM NaCl, 1% Triton X-100, 1 mM EDTA, 10% glycerol, pH 7.4; washes with 300 mM NaCl
[3] = target: T1, N-terminal of TFEB (aa 1-247) (UniProt P19484); assay: as above
T1 sequence: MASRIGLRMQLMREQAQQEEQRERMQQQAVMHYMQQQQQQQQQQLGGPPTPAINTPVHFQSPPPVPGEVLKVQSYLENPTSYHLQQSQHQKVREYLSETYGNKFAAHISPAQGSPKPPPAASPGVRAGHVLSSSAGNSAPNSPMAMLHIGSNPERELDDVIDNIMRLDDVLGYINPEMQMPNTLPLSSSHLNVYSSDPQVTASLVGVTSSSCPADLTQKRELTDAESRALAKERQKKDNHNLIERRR

| Substance | binding [1] | binding [2] | binding [3] |
| --- | --- | --- | --- |
| PPP3CB (from UniProt P16298 1-524) (enzyme) | binds | – | – |
| HA-tagged Erbin (from UniProt Q96RT1 1-1412) | – | binds | binds |
| C-terminal of Erbin (aa 391-964) (from UniProt Q96RT1 391-964) (domain or fragment) | – | binds | – |
